Experimental data: doi:10.1101/495762 (bioRxiv, 2018)
No constants are given. Whether binding was seen depends on the method and setting. Binding seen in cells or lysates may run through a third protein. Some binding calls cover weakened binding; strength is not graded here. Tags and fused reporters may be left off the sequences shown.

T1: Smc3(K198C, E1155Q)-HaloTag (S. cerevisiae) (UniProt P47037)
T1 sequence: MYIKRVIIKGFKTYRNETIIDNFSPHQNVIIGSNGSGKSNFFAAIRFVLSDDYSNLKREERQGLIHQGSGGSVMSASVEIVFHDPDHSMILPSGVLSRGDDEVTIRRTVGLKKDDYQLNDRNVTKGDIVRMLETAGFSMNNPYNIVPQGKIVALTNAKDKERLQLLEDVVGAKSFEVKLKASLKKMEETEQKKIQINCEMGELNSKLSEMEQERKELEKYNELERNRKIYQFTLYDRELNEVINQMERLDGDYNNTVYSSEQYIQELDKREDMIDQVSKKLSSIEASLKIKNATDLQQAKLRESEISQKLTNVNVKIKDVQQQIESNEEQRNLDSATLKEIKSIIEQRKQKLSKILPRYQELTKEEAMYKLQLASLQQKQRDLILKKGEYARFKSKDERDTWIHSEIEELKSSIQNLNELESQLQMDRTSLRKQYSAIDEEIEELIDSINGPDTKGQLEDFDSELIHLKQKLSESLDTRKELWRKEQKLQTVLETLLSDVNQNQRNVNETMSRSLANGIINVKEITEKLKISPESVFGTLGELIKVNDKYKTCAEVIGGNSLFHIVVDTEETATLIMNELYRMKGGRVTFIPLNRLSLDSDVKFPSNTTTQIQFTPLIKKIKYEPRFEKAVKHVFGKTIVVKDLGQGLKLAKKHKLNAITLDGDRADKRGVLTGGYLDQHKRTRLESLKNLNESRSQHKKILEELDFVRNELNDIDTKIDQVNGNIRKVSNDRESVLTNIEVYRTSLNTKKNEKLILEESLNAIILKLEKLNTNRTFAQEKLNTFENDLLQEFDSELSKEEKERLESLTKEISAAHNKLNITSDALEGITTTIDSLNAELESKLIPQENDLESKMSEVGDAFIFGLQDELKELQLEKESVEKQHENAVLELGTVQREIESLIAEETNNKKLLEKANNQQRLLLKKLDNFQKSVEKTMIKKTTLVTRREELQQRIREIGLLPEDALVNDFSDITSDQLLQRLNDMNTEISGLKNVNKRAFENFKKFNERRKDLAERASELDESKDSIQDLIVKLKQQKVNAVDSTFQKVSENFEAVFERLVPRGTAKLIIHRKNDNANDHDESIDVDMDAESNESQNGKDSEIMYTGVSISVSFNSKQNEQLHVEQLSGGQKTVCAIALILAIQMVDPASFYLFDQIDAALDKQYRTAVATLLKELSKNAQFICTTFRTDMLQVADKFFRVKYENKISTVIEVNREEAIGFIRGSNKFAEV

T2: Smc3(K38I, E570C)-HaloTag (S. cerevisiae) (UniProt P47037)
T2 sequence: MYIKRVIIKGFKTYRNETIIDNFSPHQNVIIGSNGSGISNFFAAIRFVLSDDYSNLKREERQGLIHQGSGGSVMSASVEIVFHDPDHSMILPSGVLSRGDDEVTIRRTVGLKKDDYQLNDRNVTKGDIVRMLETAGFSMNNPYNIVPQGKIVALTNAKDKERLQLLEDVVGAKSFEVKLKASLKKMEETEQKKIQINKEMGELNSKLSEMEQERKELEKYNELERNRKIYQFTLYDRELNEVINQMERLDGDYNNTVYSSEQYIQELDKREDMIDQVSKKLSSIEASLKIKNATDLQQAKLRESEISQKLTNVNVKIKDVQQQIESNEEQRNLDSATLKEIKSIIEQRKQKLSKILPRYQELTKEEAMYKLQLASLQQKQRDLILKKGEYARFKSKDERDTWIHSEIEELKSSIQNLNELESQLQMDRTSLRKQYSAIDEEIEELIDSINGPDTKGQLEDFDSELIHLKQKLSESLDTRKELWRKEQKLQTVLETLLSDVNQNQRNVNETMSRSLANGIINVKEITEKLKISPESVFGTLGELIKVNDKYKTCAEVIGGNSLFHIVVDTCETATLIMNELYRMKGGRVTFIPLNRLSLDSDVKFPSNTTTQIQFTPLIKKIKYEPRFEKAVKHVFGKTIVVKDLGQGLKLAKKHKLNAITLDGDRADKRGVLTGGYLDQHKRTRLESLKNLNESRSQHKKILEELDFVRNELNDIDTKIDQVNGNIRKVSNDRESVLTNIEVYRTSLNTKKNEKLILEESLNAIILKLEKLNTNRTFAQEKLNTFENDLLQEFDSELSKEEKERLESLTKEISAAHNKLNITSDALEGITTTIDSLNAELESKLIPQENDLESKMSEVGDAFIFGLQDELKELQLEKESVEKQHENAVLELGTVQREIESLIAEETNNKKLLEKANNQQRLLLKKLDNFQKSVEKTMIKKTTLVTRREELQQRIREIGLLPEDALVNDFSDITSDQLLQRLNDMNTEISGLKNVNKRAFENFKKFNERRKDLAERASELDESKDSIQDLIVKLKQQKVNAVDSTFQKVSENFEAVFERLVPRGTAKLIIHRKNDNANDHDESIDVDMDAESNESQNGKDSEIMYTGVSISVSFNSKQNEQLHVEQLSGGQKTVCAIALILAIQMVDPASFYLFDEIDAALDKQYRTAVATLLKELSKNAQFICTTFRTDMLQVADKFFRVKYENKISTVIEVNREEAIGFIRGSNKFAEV


What was measured:
[1] = target: T1, Smc3(K198C, E1155Q)-HaloTag (S. cerevisiae); test: cross-linking
[2] = target: T2, Smc3(K38I, E570C)-HaloTag (S. cerevisiae); test: cross-linking

| binding [1] | binding [2] | Binder |
| --- | --- | --- |
| binds |  | Smc1(K201C) (protein, UniProt P32908 1-1225) MGRLVGLELSNFKSYRGVTKVGFGESNFTSIIGPNGSGKSNMMDAISFVLGVRSNHLRSNILKDLIYRGVLNDENSDDYDNEGAASSNPQSAYVKAFYQKGNKLVELMRIISRNGDTSYKIDGKTVSYKDYSIFLENENILIKAKNFLVFQGDVEQIAAQSPVELSRMFEEVSGSIQYKKEYEELKEKIEKLSKSATESICNRRRIHGELKTYKEGINKNEEYRKQLDKKNELQKFQALWQLYHLEQQKEELTDKLSALNSEISSLKGKINNEMKSLQRSKSSFVKESAVISKQKSKLDYIFKDKEKLVSDLRLIKVPQQAAGKRISHIEKRIESLQKDLQRQKTYVERFETQLKVVTRSKEAFEEEIKQSARNYDKFKLNENDLKTYNCLHEKYLTEGGSILEEKIAVLNNDKREIQEELERFNKRADISKRRITEELSITGEKLDTQLNDLRVSLNEKNALHTERLHELKKLQSDIESANNQEYDLNFKLRETLVKIDDLSANQRETMKERKLRENIAMLKRFFPGVKGLVHDLCHPKKEKYGLAVSTILGKNFDSVIVENLTVAQECIAFLKKQRAGTASFIPLDTIETELPTLSLPDSQDYILSINAIDYEPEYEKAMQYVCGDSIICNTLNIAKDLKWKKGIRGKLVTIEGALIHKAGLMTGGISGDANNRWDKEEYQSLMSLKDKLLIQIDELSNGQRSNSIRAREVENSVSLLNSDIANLRTQVTQQKRSLDENRLEIKYHNDLIEKEIQPKITELKKKLDDLENTKDNLVKEKEALQNNIFKEFTSKIGFTIKEYENHSGELMRQQSKELQQLQKQILTVENKLQFETDRLSTTQRRYEKAQKDLENAQVEMKSLEEQEYAIEMKIGSIESKLEEHKNHLDELQKKFVTKQSELNSSEDILEDMNSNLQVLKRERDGIKEDIEKFDLERVTALKNCKISNINIPISSETTIDDLPISSTDNEAITISNSIDINYKGLPKKYKENNTDSARKELEQKIHEVEEILNELQPNARALERYDEAEGRFEVINNETEQLKAEEKKILNQFLKIKKKRKELFEKTFDYVSDHLDAIYRELTKNPNSNVELAGGNASLTIEDEDEPFNAGIKYHATPPLKRFKDMEYLSGGEKTVAALALLFAINSYQPSPFFVLDEVDAALDITNVQRIAAYIRRHRNPDLQFIVISLKNTMFEKSDALVGVYRQQQENSSKIITLDLSNYAE |
|  | binds | Smc1(K639C) (protein, UniProt P32908 1-1225) MGRLVGLELSNFKSYRGVTKVGFGESNFTSIIGPNGSGKSNMMDAISFVLGVRSNHLRSNILKDLIYRGVLNDENSDDYDNEGAASSNPQSAYVKAFYQKGNKLVELMRIISRNGDTSYKIDGKTVSYKDYSIFLENENILIKAKNFLVFQGDVEQIAAQSPVELSRMFEEVSGSIQYKKEYEELKEKIEKLSKSATESIKNRRRIHGELKTYKEGINKNEEYRKQLDKKNELQKFQALWQLYHLEQQKEELTDKLSALNSEISSLKGKINNEMKSLQRSKSSFVKESAVISKQKSKLDYIFKDKEKLVSDLRLIKVPQQAAGKRISHIEKRIESLQKDLQRQKTYVERFETQLKVVTRSKEAFEEEIKQSARNYDKFKLNENDLKTYNCLHEKYLTEGGSILEEKIAVLNNDKREIQEELERFNKRADISKRRITEELSITGEKLDTQLNDLRVSLNEKNALHTERLHELKKLQSDIESANNQEYDLNFKLRETLVKIDDLSANQRETMKERKLRENIAMLKRFFPGVKGLVHDLCHPKKEKYGLAVSTILGKNFDSVIVENLTVAQECIAFLKKQRAGTASFIPLDTIETELPTLSLPDSQDYILSINAIDYEPEYEKAMQYVCGDSIICNTLNIACDLKWKKGIRGKLVTIEGALIHKAGLMTGGISGDANNRWDKEEYQSLMSLKDKLLIQIDELSNGQRSNSIRAREVENSVSLLNSDIANLRTQVTQQKRSLDENRLEIKYHNDLIEKEIQPKITELKKKLDDLENTKDNLVKEKEALQNNIFKEFTSKIGFTIKEYENHSGELMRQQSKELQQLQKQILTVENKLQFETDRLSTTQRRYEKAQKDLENAQVEMKSLEEQEYAIEMKIGSIESKLEEHKNHLDELQKKFVTKQSELNSSEDILEDMNSNLQVLKRERDGIKEDIEKFDLERVTALKNCKISNINIPISSETTIDDLPISSTDNEAITISNSIDINYKGLPKKYKENNTDSARKELEQKIHEVEEILNELQPNARALERYDEAEGRFEVINNETEQLKAEEKKILNQFLKIKKKRKELFEKTFDYVSDHLDAIYRELTKNPNSNVELAGGNASLTIEDEDEPFNAGIKYHATPPLKRFKDMEYLSGGEKTVAALALLFAINSYQPSPFFVLDEVDAALDITNVQRIAAYIRRHRNPDLQFIVISLKNTMFEKSDALVGVYRQQQENSSKIITLDLSNYAE |
